Structures were worked out from names or drawings and are uncertain.
Legend:
[1] = molecular target: recombinant human Meningioma Expressed Antigen 5 (MGEA5), also referred to as O-GlcNAcase (OGA) (Homo sapiens, UniProt O60502); experiment: OGA biochemical assay (inhibition of FM-GlcNAc hydrolysis, fluorescence); settings: FM-GlcNAc substrate; for Enzymatic hOGA; pIC50: 6 h at room temperature; for Enzymatic Emax (%): maximal effect
Text: The assay is based on the inhibition of the hydrolysis of fluorescein mono-β-D-N-Acetyl-Glucosamine (FM-GlcNAc) (Mariappa et al. 2015, Biochem J 470:255) by the recombinant human Meningioma Expressed Antigen 5 (MGEA5), also referred to as O-GlcNAcase (OGA). The hydrolysis FM-GlcNAc (Marker Gene technologies, cat #M1485) results in the formation of β-D-N-glucosamineacetate and fluorescein. The fluorescence of the latter can be measured at excitation wavelength 485 nm and emission wavelength 538 nm. An increase in enzyme activity results in an increase in fluorescence signal. Full length OGA enzyme was purchased at OriGene (cat #TP322411). The enzyme was stored in 25 mM Tris.HCl, pH 7.3, 100 mM glycine, 10% glycerol at −20° C. Thiamet G and GlcNAcStatin were tested as reference compounds (Yuzwa et al. 2008 Nature Chemical Biology 4:483; Yuzwa et al. 2012 Nature Chemical Biology 8:393). The assay was performed in 200 mM Citrate/phosphate buffer supplemented with 0.005% Tween-20. 35.6 g Na2HPO4 2H2O (Sigma, #C0759) were dissolved in 1 L water to obtain a 200 mM solution. 19.2 g citric acid (Merck, #1.06580) was dissolved in 1 L water to obtain a 100 mM solution. pH of the sodiumphosphate solution was adjusted with the citric acid solution to 7.2. The buffer to stop the reaction consists of a 500 mM Carbonate buffer, pH 11.0. 734 mg FM-GlcNAc were dissolved in 5.48 mL DMSO to obtain a 250 mM solution and was stored at −20° C. OGA was used at a 2 nM concentration and FM-GlcNAc at a 100 uM final concentration. Dilutions were prepared in assay buffer.
50 nl of a compound dissolved in DMSO was dispensed on Black Proxiplate™ 384 Plus Assay plates (Perkin Elmer, #6008269) and 3 μl fl-OGA enzyme mix added subsequently. Plates were pre-incubated for 60 min at room temperature and then 2 μl FM-GlcNAc substrate mix added. […] Plates were briefly centrifuged for 1 min at 1000 rpm and incubate at room temperature for 6 h. To stop the reaction 5 μl STOP buffer were added and plates centrifuge again 1 min at 1000 rpm. Fluorescence was quantified in the Thermo Scientific Fluoroskan Ascent or the PerkinElmer EnVision with excitation wavelength 485 nm and emission wavelength 538 nm.
For analysis a best-fit curve is fitted by a minimum sum of squares method. From this an IC50 value and Hill coefficient was obtained. High control (no inhibitor) and low control (saturating concentrations of standard inhibitor) were used to define the minimum and maximum values.

By UniProt entry, the sequences of proteins in these tests, tags left out.
UniProt O60502, whole entry: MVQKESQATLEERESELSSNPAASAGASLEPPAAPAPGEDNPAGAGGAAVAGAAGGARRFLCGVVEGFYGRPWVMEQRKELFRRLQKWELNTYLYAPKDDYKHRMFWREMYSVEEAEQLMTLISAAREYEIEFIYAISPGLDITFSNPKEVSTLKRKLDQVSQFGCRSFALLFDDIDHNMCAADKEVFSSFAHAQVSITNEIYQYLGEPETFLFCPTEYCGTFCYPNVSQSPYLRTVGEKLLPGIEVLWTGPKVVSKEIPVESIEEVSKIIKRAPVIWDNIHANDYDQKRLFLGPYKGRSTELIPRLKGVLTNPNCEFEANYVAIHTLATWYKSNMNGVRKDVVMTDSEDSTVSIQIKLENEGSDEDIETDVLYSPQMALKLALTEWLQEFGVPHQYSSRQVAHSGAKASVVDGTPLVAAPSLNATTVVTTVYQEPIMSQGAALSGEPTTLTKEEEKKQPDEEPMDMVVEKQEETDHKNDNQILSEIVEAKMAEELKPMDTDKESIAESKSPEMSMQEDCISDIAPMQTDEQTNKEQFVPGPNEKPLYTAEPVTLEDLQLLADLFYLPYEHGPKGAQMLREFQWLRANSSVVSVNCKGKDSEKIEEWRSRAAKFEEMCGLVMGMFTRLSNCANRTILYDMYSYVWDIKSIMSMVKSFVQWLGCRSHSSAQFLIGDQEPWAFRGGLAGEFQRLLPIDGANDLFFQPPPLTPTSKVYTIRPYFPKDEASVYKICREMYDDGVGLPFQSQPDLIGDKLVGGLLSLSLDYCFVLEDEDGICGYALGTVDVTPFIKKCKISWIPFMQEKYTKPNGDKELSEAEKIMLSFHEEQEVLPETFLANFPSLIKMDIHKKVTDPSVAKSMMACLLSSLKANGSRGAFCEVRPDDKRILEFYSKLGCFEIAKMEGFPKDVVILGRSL

[2] = molecular target: OGA (Homo sapiens, UniProt O60502); experiment: OGA cellular assay (ICC detection of O-GlcNAcylated proteins in HEK293 cells inducible for P301L mutant human Tau); settings: for Cellular hOGA; pEC50: 6 hours incubation; for Cellular Emax (%): maximum = Thiamet G 200 uM
Description: HEK293 cells inducible for P301L mutant human Tau (isoform 2N4R) were established at Janssen. Thiamet-G was used for both plate validation (high control) and as reference compound (reference EC50 assay validation). OGA inhibition is evaluated through the immunocytochemical (ICC) detection of O-GlcNAcylated proteins by the use of a monoclonal antibody (CTD110.6; Cell Signaling, #9875) detecting 0-GlcNAcylated residues as previously described (Dorfmueller et al. 2010 Chemistry & biology, 17:1250). Inhibition of OGA will result in an increase of O-GlcNAcylated protein levels resulting in an increased signal in the experiment. Cell nuclei are stained with Hoechst to give a cell culture quality control and a rough estimate of immediate compounds toxicity, if any. ICC pictures are imaged with a Perkin Elmer Opera Phenix plate microscope and quantified with the provided software Perkin Elmer Harmony 4.1.
Cells were propagated in DMEM high Glucose (Sigma, #D5796) following standard procedures. 2 days before the cell assay cells are split, counted and seeded in Poly-D-Lysine (PDL) coated 96-wells (Greiner, #655946) plate at a cell density of 12,000 cells per cm^2 (4,000 cells per well) in 100 μl of Assay Medium (Low Glucose medium is used to reduce basal levels of GlcNAcylation) (Park et al. 2014 The Journal of biological chemistry 289:13519). At the day of compound test medium from assay plates was removed and replenished with 90 μl of fresh Assay Medium. 10 μl of compounds at a 10fold final concentration were added to the wells. Plates were centrifuged shortly before incubation in the cell incubator for 6 hours. DMSO concentration was set to 0.2%. Medium is discarded by applying vacuum. For staining of cells medium was removed and cells washed once with 100 μl D-PBS (Sigma, #D8537). From next step onwards unless other stated assay volume was always 50 μl and incubation was performed without agitation and at room temperature. Cells were fixed in 50 μl of a 4% paraformaldehyde (PFA, Alpha aesar, #043368) PBS solution for 15 minutes at room temperature. […] Before analysis samples were washed 2 times manually for 5 minutes in ICC base buffer.
Imaging is performed using Perkin Elmer Phenix Opera using a water 20× objective and recording 9 fields per well. Intensity readout at 488 nm is used as a measure of O-GlcNAcylation level of total proteins in wells. To assess potential toxicity of compounds nuclei were counted using the Hoechst staining. IC50-values are calculated using parametric non-linear regression model fitting. As a maximum inhibition Thiamet G at a 200 uM concentration is present on each plate. In addition, a concentration response of Thiamet G is calculated on each plate.

SMILES | Enzymatic hOGA; pIC50 [1] | Enzymatic Emax (%) [1] | Cellular hOGA; pEC50 [2] | Cellular Emax (%) [2] | Enzymatic hOGA; pIC50 ([1]; tested form: 2HCl) | Enzymatic Emax (%) ([1]; tested form: 2HCl) | Cellular hOGA; pEC50 ([2]; tested form: 2HCl) | Cellular Emax (%) ([2]; tested form: 2HCl)
COc1cc(OC[C@@H]2CCN(C(C)c3ccc4sc(C)nc4n3)C2)cc(C)n1 (stereo partly drawn) | 6.0 | 93% | <6 | 2% |  |  |  | 
Cc1cc(C[C@H]2CCCN(C(C)c3cnc4cn(C)nc4c3)C2)cc(C)n1 (stereo partly drawn) |  |  |  |  | 7.6 | 103% | <6 | 45%
Cc1cc(C[C@H]2CCCN(C(C)c3cc4nn(C)cc4cn3)C2)cc(C)n1 (stereo partly drawn) | 6.6 | 99% |  |  |  |  |  | 
Cc1cc(C[C@H]2CCCN(C(C)c3ccc4nn(C)cc4c3)C2)cc(C)n1 (stereo partly drawn) | 6.0 | 92% |  |  |  |  |  | 

Reference: patent US20210115040A1, “OGA INHIBITOR COMPOUNDS” (Janssen Pharmaceutica NV, priority 2018, published 2021)
